Laboratory results: paper PMC12721901

Chains of the proteins cited; added tags and fusions are not shown. Lines headed by an entry give the natural chain unless they say otherwise; changes in a name come on top.
UniProt Q15910: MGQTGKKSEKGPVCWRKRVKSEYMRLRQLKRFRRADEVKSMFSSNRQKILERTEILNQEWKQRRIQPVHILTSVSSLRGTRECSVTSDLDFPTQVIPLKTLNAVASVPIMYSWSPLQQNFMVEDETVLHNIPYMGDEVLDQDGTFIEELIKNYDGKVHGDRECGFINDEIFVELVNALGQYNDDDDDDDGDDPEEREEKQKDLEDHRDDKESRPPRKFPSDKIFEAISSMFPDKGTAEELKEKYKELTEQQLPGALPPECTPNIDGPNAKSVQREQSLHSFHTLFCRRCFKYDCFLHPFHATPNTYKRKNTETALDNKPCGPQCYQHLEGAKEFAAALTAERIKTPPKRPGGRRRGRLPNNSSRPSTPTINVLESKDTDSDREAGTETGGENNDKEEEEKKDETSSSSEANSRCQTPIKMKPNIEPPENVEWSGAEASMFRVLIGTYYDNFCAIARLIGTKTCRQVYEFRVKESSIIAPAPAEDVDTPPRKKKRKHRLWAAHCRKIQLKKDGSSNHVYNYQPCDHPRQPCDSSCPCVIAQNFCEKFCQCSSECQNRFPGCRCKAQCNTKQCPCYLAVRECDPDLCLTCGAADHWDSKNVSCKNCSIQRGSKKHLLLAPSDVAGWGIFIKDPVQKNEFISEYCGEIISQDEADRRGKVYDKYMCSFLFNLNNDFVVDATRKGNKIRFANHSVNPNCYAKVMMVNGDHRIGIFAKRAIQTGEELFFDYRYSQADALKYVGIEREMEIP
UniProt Q9UPT9: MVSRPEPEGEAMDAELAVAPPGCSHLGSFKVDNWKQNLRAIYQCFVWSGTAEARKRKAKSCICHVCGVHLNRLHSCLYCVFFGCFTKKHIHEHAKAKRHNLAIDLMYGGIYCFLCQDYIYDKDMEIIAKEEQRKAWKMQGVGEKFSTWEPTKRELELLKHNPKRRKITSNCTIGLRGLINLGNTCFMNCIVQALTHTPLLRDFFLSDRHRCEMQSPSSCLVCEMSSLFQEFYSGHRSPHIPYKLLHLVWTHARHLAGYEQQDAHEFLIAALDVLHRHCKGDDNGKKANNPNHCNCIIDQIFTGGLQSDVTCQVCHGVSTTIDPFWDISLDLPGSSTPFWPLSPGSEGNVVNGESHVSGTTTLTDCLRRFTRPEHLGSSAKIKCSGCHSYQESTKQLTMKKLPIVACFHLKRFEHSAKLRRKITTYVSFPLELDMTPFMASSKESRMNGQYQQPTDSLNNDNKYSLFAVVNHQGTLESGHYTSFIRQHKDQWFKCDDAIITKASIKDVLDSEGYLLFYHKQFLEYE

Target: Flag-tagged EZH2 (UniProt Q15910)
Assay: co-IP; transiently transfected HEK-293T cells (Myc-USP22 or its mutants with FLAG-EZH2), immunoblot

binding: binds
Substance: USP22 with mutation of the critical cysteines in the zinc finger structure (from UniProt Q9UPT9) (enzyme)

No constants are given. Whether binding was seen depends on the method and setting. In cells and extracts the contact can be indirect. Binding calls can cover weak binding; strength is not graded here.
